Results from the supplement of paper PMC5407854, “Inhibitor of ppGalNAc-T3-mediated O-glycosylation blocks cancer cell invasiveness and lowers FGF23 levels” (eLife, 2017).
The list shows a part of the results. Most values lie at the level of the controls, where differences are scatter.

Tests used:
ppGalNAc-T3 sensor = experiment: T3 sensor activation Q score (MG/GFP ratio z-score vs DMSO controls) (SD units); higher = more sensor activation (inhibition of ppGalNAc-T3 glycosylation); details: HEK293 sensor cells; 10 µM; 6 h
Procedure: (§1)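 Cells were treated with compound at 10 uM for 6 h, then MG/GFP ratio was read by flow cytometry (10,000 cells per well, duplicate wells). Q = (R - R_neg)/SD_neg relative to DMSO vehicle controls; the signal rises when the glycosyltransferase is inhibited.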

ppGalNAc-T2 sensor = experiment: T2 sensor activation Q score (MG/GFP ratio z-score vs DMSO controls) (SD units); higher = more sensor activation (inhibition of ppGalNAc-T2 glycosylation); details: HEK293 sensor cells; 10 µM; 6 h
Procedure: as §1

Structure (SMILES): COc1ccc(CN2CCCCCC2)cc1OC
- T3 sensor activation Q score (ppGalNAc-T3 sensor): -0.265
- T2 sensor activation Q score (ppGalNAc-T2 sensor): 0.055

Structure (SMILES): O=C(O)CCC(=O)c1c[nH]c2ccccc12
- T3 sensor activation Q score (ppGalNAc-T3 sensor): 0.335
- T2 sensor activation Q score (ppGalNAc-T2 sensor): 0.3

Structure (SMILES): O=c1[nH]c(NCCCO)nc2c1C1(CCCC1)Cc1ccccc1-2
- T3 sensor activation Q score (ppGalNAc-T3 sensor): -0.565
- T2 sensor activation Q score (ppGalNAc-T2 sensor): 0.035

Structure (SMILES): CCOC(=O)N1CCN(Cc2cccc(Cl)c2)CC1
- T3 sensor activation Q score (ppGalNAc-T3 sensor): 0.135
- T2 sensor activation Q score (ppGalNAc-T2 sensor): 0.71

Structure (SMILES): c1ccc(NC(c2ccccc2)c2ccncc2)cc1 (stereo unspecified)
- T3 sensor activation Q score (ppGalNAc-T3 sensor): -0.395
- T2 sensor activation Q score (ppGalNAc-T2 sensor): -0.685

Structure (SMILES): O=S(=O)(c1ccccc1)N1CCN(Cc2ccccc2F)CC1
- T3 sensor activation Q score (ppGalNAc-T3 sensor): -0.505
- T2 sensor activation Q score (ppGalNAc-T2 sensor): -0.875

Structure (SMILES): Cc1cc(C)c(NS(=O)(=O)Cc2ccccc2)c(C)c1
- T3 sensor activation Q score (ppGalNAc-T3 sensor): -0.37
- T2 sensor activation Q score (ppGalNAc-T2 sensor): -0.87

Structure (SMILES): NC(=O)CC1NC(=O)c2ccccc21 (stereo unspecified)
- T3 sensor activation Q score (ppGalNAc-T3 sensor): -0.13
- T2 sensor activation Q score (ppGalNAc-T2 sensor): 1.03

Structure (SMILES): CC(=O)C1=C(O)C(=O)N(c2ccc(C)cc2)C1c1ccc(N(C)C)cc1 (stereo unspecified)
- T3 sensor activation Q score (ppGalNAc-T3 sensor): 0.24
- T2 sensor activation Q score (ppGalNAc-T2 sensor): -0.21

Structure (SMILES): CCC1CCCCN1C1CC(=O)N(c2ccc(OC)cc2)C1=O (stereo unspecified)
- T3 sensor activation Q score (ppGalNAc-T3 sensor): 0.75
- T2 sensor activation Q score (ppGalNAc-T2 sensor): -0.665

Structure (SMILES): Cc1cc(NN)nc(-c2ccccc2O)n1
- T3 sensor activation Q score (ppGalNAc-T3 sensor): -0.72
- T2 sensor activation Q score (ppGalNAc-T2 sensor): 1.58

Structure (SMILES): COc1ccc(OC)c(CN2CCN(c3ccc(C(C)=O)cc3)CC2)c1
- T3 sensor activation Q score (ppGalNAc-T3 sensor): 0.58
- T2 sensor activation Q score (ppGalNAc-T2 sensor): -0.745

Structure (SMILES): COc1ccc(OC)c(Nc2cc(-c3ccccc3)nc(N)n2)c1
- T3 sensor activation Q score (ppGalNAc-T3 sensor): 2.71
- T2 sensor activation Q score (ppGalNAc-T2 sensor): 1.58

Structure (SMILES): O=C(Nc1ccccc1)Nc1cccc2cccnc12
- T3 sensor activation Q score (ppGalNAc-T3 sensor): 0.73
- T2 sensor activation Q score (ppGalNAc-T2 sensor): -0.805

Structure (SMILES): CN1CCN(C(=O)c2ccc(Cl)cc2)CC1
- T3 sensor activation Q score (ppGalNAc-T3 sensor): 1.25
- T2 sensor activation Q score (ppGalNAc-T2 sensor): -1.28

Structure (SMILES): Cc1ccc2occ(CN3CCN(c4ccccc4F)CC3)c(=O)c2c1
- T3 sensor activation Q score (ppGalNAc-T3 sensor): 0.15
- T2 sensor activation Q score (ppGalNAc-T2 sensor): 0.785

Structure (SMILES): Cn1c(=O)c(Cl)c(O)c2ccccc21
- T3 sensor activation Q score (ppGalNAc-T3 sensor): 0.305
- T2 sensor activation Q score (ppGalNAc-T2 sensor): -0.07

Structure (SMILES): CCCCOc1ccc(NC(=O)c2ccc(F)cc2)cc1
- T3 sensor activation Q score (ppGalNAc-T3 sensor): 0.76
- T2 sensor activation Q score (ppGalNAc-T2 sensor): -0.655

Structure (SMILES): CCCn1ncc(OC)c(Cl)c1=O
- T3 sensor activation Q score (ppGalNAc-T3 sensor): -0.49
- T2 sensor activation Q score (ppGalNAc-T2 sensor): 1.44

Structure (SMILES): O=S(=O)(c1ccccc1)N1CCN(Cc2ccc(F)cc2)CC1
- T3 sensor activation Q score (ppGalNAc-T3 sensor): -0.755
- T2 sensor activation Q score (ppGalNAc-T2 sensor): 1.14

Structure (SMILES): Cc1nc2c(=O)[nH]c3ccccc3c2o1
- T3 sensor activation Q score (ppGalNAc-T3 sensor): 0.53
- T2 sensor activation Q score (ppGalNAc-T2 sensor): 0.295

Structure (SMILES): O=C1c2ccccc2C(=O)N1c1ncn[nH]1
- T3 sensor activation Q score (ppGalNAc-T3 sensor): -0.37
- T2 sensor activation Q score (ppGalNAc-T2 sensor): -0.365

Structure (SMILES): COc1ccccc1C(=O)Nc1cccc(C)c1C
- T3 sensor activation Q score (ppGalNAc-T3 sensor): 0.945
- T2 sensor activation Q score (ppGalNAc-T2 sensor): -0.71

Structure (SMILES): Cc1ccc(C(=O)Nc2ccc(C(C)C)cc2)cc1
- T3 sensor activation Q score (ppGalNAc-T3 sensor): 0.125
- T2 sensor activation Q score (ppGalNAc-T2 sensor): -1.04

Structure (SMILES): COc1ccc(CC(=O)N2CCOCC2)cc1
- T3 sensor activation Q score (ppGalNAc-T3 sensor): 2.25
- T2 sensor activation Q score (ppGalNAc-T2 sensor): 0.975

Structure (SMILES): COc1ccc(N2CCN(Cc3ccc(OC)c(C)c3OC)CC2)cc1
- T3 sensor activation Q score (ppGalNAc-T3 sensor): 0.26
- T2 sensor activation Q score (ppGalNAc-T2 sensor): 1.16

Structure (SMILES): CC(=O)c1cccc(NC(=O)c2cccs2)c1
- T3 sensor activation Q score (ppGalNAc-T3 sensor): 0.245
- T2 sensor activation Q score (ppGalNAc-T2 sensor): 0.025

Structure (SMILES): CN1C(=O)C(=O)C(=C(O)c2ccccc2)C1c1ccccc1 (stereo unspecified)
- T3 sensor activation Q score (ppGalNAc-T3 sensor): 0.4
- T2 sensor activation Q score (ppGalNAc-T2 sensor): -0.53

Structure (SMILES): Cc1cccc(C)c1NC(=O)c1ccco1
- T3 sensor activation Q score (ppGalNAc-T3 sensor): -0.035
- T2 sensor activation Q score (ppGalNAc-T2 sensor): 0.71

Structure (SMILES): O=C(c1ccc(Br)o1)N(C1CCCCC1)C1CCCCC1
- T3 sensor activation Q score (ppGalNAc-T3 sensor): 0.44
- T2 sensor activation Q score (ppGalNAc-T2 sensor): 0.9

Structure (SMILES): O=C(O)CCC(=O)Nc1ccc2c(c1)oc1ccccc12
- T3 sensor activation Q score (ppGalNAc-T3 sensor): 0.755
- T2 sensor activation Q score (ppGalNAc-T2 sensor): 0.205

Structure (SMILES): Cn1ncc(Cl)c(Oc2ccc(Cl)cc2)c1=O
- T3 sensor activation Q score (ppGalNAc-T3 sensor): -0.41
- T2 sensor activation Q score (ppGalNAc-T2 sensor): 1.33

Structure (SMILES): NC(=O)c1ccccc1-c1ccccc1C(=O)O
- T3 sensor activation Q score (ppGalNAc-T3 sensor): -0.14
- T2 sensor activation Q score (ppGalNAc-T2 sensor): -1.44

Structure (SMILES): NC(=O)c1cc(N2C(=O)CCC2=O)ccc1N1CCOCC1
- T3 sensor activation Q score (ppGalNAc-T3 sensor): 0.24
- T2 sensor activation Q score (ppGalNAc-T2 sensor): 0.22

Structure (SMILES): CCOC(=O)Nc1ccc(C(C)CC)cc1 (stereo unspecified)
- T3 sensor activation Q score (ppGalNAc-T3 sensor): -0.28
- T2 sensor activation Q score (ppGalNAc-T2 sensor): -0.545

Structure (SMILES): Cc1cccc(NC2=C(N(C)C)C(=O)c3ccccc3C2=O)c1
- T3 sensor activation Q score (ppGalNAc-T3 sensor): 0.375
- T2 sensor activation Q score (ppGalNAc-T2 sensor): 0.11

Structure (SMILES): CC(C)(C)NC(=O)Nc1ccc2nccnc2c1
- T3 sensor activation Q score (ppGalNAc-T3 sensor): -0.445
- T2 sensor activation Q score (ppGalNAc-T2 sensor): -0.595

Structure (SMILES): Nc1nc(C23CC4CC(CC(C4)C2)C3)cs1
- T3 sensor activation Q score (ppGalNAc-T3 sensor): -0.34
- T2 sensor activation Q score (ppGalNAc-T2 sensor): 0.4

Structure (SMILES): Cc1ccc(C(=O)N2CCN(C)CC2)cc1
- T3 sensor activation Q score (ppGalNAc-T3 sensor): -0.335
- T2 sensor activation Q score (ppGalNAc-T2 sensor): 0.93

Structure (SMILES): CC(C)c1ccc(S(=O)(=O)NC(C)(C)C)cc1
- T3 sensor activation Q score (ppGalNAc-T3 sensor): 0.615
- T2 sensor activation Q score (ppGalNAc-T2 sensor): -0.77

Structure (SMILES): CC12CC3(C)CC(C)(C1)CC(C(=O)NN)(C2)C3
- T3 sensor activation Q score (ppGalNAc-T3 sensor): 2.65
- T2 sensor activation Q score (ppGalNAc-T2 sensor): -0.51

Structure (SMILES): O=[N+]([O-])c1cccc(-c2ccccc2)c1
- T3 sensor activation Q score (ppGalNAc-T3 sensor): -0.71
- T2 sensor activation Q score (ppGalNAc-T2 sensor): 0.14

Structure (SMILES): CC(C)Oc1ccccc1C1CC(=O)NC1=O (stereo unspecified)
- T3 sensor activation Q score (ppGalNAc-T3 sensor): 0.65
- T2 sensor activation Q score (ppGalNAc-T2 sensor): -1.67

Structure (SMILES): CC(=O)N1C(=O)C(=O)c2ccccc21
- T3 sensor activation Q score (ppGalNAc-T3 sensor): 0.85
- T2 sensor activation Q score (ppGalNAc-T2 sensor): 0.04

Structure (SMILES): O=C(O)c1ccc2c(c1)C(=O)N(CCO)C2=O
- T3 sensor activation Q score (ppGalNAc-T3 sensor): -0.525
- T2 sensor activation Q score (ppGalNAc-T2 sensor): -0.405

Structure (SMILES): C=CCN1C(=O)C(O)=C(C(C)=O)C1c1ccccc1F (stereo unspecified)
- T3 sensor activation Q score (ppGalNAc-T3 sensor): 0.405
- T2 sensor activation Q score (ppGalNAc-T2 sensor): 0.265

Structure (SMILES): Cc1ccccc1CN1CCCN(C)CC1
- T3 sensor activation Q score (ppGalNAc-T3 sensor): -0.19
- T2 sensor activation Q score (ppGalNAc-T2 sensor): 0.635

Structure (SMILES): CN1CCN(C2CC(=O)N(c3ccc(F)cc3)C2=O)CC1 (stereo unspecified)
- T3 sensor activation Q score (ppGalNAc-T3 sensor): -0.035
- T2 sensor activation Q score (ppGalNAc-T2 sensor): -0.49

Structure (SMILES): NNC(=O)CNC(c1ccccc1)c1cc(Br)ccc1N (stereo unspecified)
- T3 sensor activation Q score (ppGalNAc-T3 sensor): 0.4
- T2 sensor activation Q score (ppGalNAc-T2 sensor): -1.02

Structure (SMILES): Cc1c(Cl)cccc1NC(=O)Cc1ccccc1
- T3 sensor activation Q score (ppGalNAc-T3 sensor): -0.715
- T2 sensor activation Q score (ppGalNAc-T2 sensor): -0.005

Structure (SMILES): COc1ccc(C(C)NC(=O)c2ccccc2)cc1OC (stereo unspecified)
- T3 sensor activation Q score (ppGalNAc-T3 sensor): -0.5
- T2 sensor activation Q score (ppGalNAc-T2 sensor): 1.11

Structure (SMILES): CC(C)(C)c1ccc(C(=O)Nc2ccc3c(c2)OCO3)cc1
- T3 sensor activation Q score (ppGalNAc-T3 sensor): -0.085
- T2 sensor activation Q score (ppGalNAc-T2 sensor): -0.685

Structure (SMILES): O=C1CC(Nc2ccccc2)C(=O)N1c1cccc(Cl)c1 (stereo unspecified)
- T3 sensor activation Q score (ppGalNAc-T3 sensor): -0.02
- T2 sensor activation Q score (ppGalNAc-T2 sensor): -0.585
